Experimental data reported in patent publication US4701205A, “Chemical tobacco sucker control” (Chevron Research Company, priority 1986, dated 1987).
Read-outs that look alike come from different tables or passages of the source.

Experiments:
[1] = tested on: tobacco suckers (axillary buds), Var. Glurk; assay: Tobacco sucker control, spray to run-off on topped plants, Var. Glurk; format: in vivo, Nicotiana tabacum; conditions: Table 4, Three After Treatment, 4 pots
Procedure: In this example, the title compound of Example 1 (i.e., 2-[1-(3-trans-chloroallyloxyamino)ethylidene]-5-(2-ethylthiopropyl)cyclohexane-1,3-dione was tested side-by-side with 2-[1-(3-trans-chloroallyloxyamino)butylidene]-5-(2-ethylthio-propyl)-cyclohexane-1,3-dione for their ability to control (retard or prevent) lateral axillary buds in tobacco plants.
(§1) Twenty-four hours before treatment, the tobacco plants are "topped", removing the top 15 cm of the plant. Any plants which are tending to lean or bend in the pot were staked, and all pots labeled. Three to five replicates were used per treatment. A 5% wt. stock solution of each test compound dissolved in acetone containing a small amount of non-ionic emulsifier was prepared. The stock solution was appropriately diluted with deionized water containing 0.625 g of emulsifier per liter of water, to the desired spray solution concentration.
(§2) Plants were sprayed to point of run-off with a pressure atomizer, making sure that the stem, leaf axils, and leaves were all wet thoroughly with the solution. 30 to 35 ml of solution were used per plant. This was checked by recording volume of solution in sprayer reservoir before and after treatment. After spraying, the plants were incubated for 18 to 23 days in a greenhouse maintained at 70°-80° F. using standing water capilliary irrigation. The plants were uniformly fertilized once per week with a standard house plant fertilizer. After the incubation period, the plants were evaluated at various times for sucker control. […] The growth of secondary suckers (buds at lower nodes) when present, were also measured.
(§3) In some instances, comparisons were also made on the basis of sucker length.
(§4) The results are reported as an average of the replicates used in each test.
(§5) In this example, the title compound of Example 1 was tested side-by-side with maleic hydrazide ("C-2") with respect to axillary bud control in two varities of tobacco plants. These tests were conducted following the same general procedure as described in Example 3 hereinabove using the dosage concentrations given in the tables hereinbelow. […]

[2] = tested on: tobacco suckers (axillary buds), Var. 12 × L8; format: in vivo, Nicotiana tabacum; conditions: Table 4, Three After Treatment, 4 pots
Procedure: as §1, §2, §3, §4, §5

For `CCSC(C)CC1CC(=O)C(=C(C)NOC/C=C/Cl)C(=O)C1` (stereo not drawn) [Compound 1, Trans-2-[1-(3-chloroallyloxyamino)-ethylidene]-5-(2-ethylthiopropyl)-cyclohexane-1,3-dione], the “Comparative Leaf Area (cm^2)” value ([1]; 100 mg/l) was 155.48 cm^2, the “Comparative Leaf Area (cm^2)” value ([1]; 200 mg/l) was 155.03 cm^2 and the “Comparative Leaf Area (cm^2)” value ([1]; 400 mg/l) was 130.15 cm^2. The “Comparative Leaf Area (cm^2)” value ([1]; 800 mg/l) was 141.00 cm^2, the “Comparative Leaf Area (cm^2)” value ([2]; 100 mg/l) was 244.40 cm^2 and the “Comparative Leaf Area (cm^2)” value ([2]; 200 mg/l) was 240.53 cm^2. The “Comparative Leaf Area (cm^2)” value ([2]; 400 mg/l) was 334.13 cm^2 and the “Comparative Leaf Area (cm^2)” value ([2]; 800 mg/l) was 284.50 cm^2.
